Source: PubChem BioAssay AID493027 (The Scripps Research Institute Molecular Screening Center, 2011)
“And” between values parts separate entries of the source, which are not always exact repeats. Equal values may be shown once. Out of some 2,000 compounds screened, about 45 (2%) were called active.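 Rule for the calls: active = inhibition above the screen-wide mean inhibition plus 3 SD (cut at about 44% in these data); inactive = the rest.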 The list shows a part of the results.

Sequences of proteins named here, by UniProt entry; tags and fusion partners are left off. A change or cut given only in a name is not applied to a line headed by its entry.
UniProt O60240: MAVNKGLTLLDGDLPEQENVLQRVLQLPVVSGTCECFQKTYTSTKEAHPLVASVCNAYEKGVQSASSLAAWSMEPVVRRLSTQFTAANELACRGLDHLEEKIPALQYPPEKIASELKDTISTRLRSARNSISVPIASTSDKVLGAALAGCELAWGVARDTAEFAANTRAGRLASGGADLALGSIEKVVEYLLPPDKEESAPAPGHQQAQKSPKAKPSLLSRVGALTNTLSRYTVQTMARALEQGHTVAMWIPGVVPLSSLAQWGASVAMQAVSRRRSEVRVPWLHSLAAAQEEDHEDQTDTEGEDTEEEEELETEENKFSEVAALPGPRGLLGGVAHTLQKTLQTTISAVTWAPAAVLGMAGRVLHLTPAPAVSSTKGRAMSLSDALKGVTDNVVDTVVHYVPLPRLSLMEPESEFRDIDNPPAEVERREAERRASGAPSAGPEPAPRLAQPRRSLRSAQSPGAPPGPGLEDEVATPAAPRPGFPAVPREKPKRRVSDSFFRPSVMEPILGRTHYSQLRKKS
UniProt Q8WTS1: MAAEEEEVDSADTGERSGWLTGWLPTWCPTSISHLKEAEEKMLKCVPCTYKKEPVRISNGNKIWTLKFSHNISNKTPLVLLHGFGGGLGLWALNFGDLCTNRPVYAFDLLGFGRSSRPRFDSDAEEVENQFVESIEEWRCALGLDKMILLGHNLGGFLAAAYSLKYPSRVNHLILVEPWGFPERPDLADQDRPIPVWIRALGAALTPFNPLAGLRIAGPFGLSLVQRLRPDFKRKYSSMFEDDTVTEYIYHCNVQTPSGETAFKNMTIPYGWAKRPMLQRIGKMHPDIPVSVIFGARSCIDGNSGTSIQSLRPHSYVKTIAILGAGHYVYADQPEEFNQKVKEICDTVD

biological target: Perilipin-1 (Homo sapiens) + 1-acylglycerol-3-phosphate O-acyltransferase ABHD5 (Homo sapiens) (UniProt O60240+Q8WTS1); experiment: blockers of ABHD5 binding to perilipin-1 – cell lysate, split luciferase complementation, luminescence, NIH validation set, pilot screen (AID 493027);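 note: 0% = DMSO wells with the 100% control not disclosed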; settings: split G. princeps luciferase complementation, 4 h; at 7.9 µM, stronger effect = higher value

Structure (SMILES) | inhibition
COc1cccc(OC2OC3COC(C)(C)OC3C(O)C2NC(C)=O)c1 (stereo not given) | inactive: -10.2%
N/C(=N\OC(=O)c1ccc(Br)o1)c1ccccn1 | inactive: -7.68%
Cn1c(=O)[nH]c(=O)c2c1nc(Br)n2CCCO | inactive: -6.24%
COC(=O)c1ccc(=O)n(Cc2ccco2)c1 | inactive: 12.2%
O=C(Nc1cccc(Oc2c(F)c(F)c(F)c(F)c2F)c1)N1C[C@@H]2C[C@@H](C1)c1cccc(=O)n1C2 | inactive: 9%
C=C(C)[C@@H]1CC=C(CN2CCC(N3CCC(C(=O)N4CCCC4)CC3)CC2)CC1 | inactive: -11.8%
COc1cc2c(cc1NCc1ccc3c(c1)OCO3)oc1ccccc12 | inactive: 0.96%
COc1ccc(-c2noc(CCc3ccccc3)n2)cc1 | inactive: -13.1%
CC(C)C[C@H](NC(=O)[C@@H]1Cc2ccccc2CN1C(=O)OC(C)(C)C)C(=O)NCC1CCC(C(=O)O)CC1 (stereo not given in full) | inactive: -6.8%
Oc1[nH]c2ccccc2c1C1=NCCCC1 | inactive: -6.01%
Cc1nc2ccccn2c(=O)c1CCN1CCC(C(=O)c2ccc(F)cc2)CC1 | inactive: -8.54%
CCCn1c(=O)c2[nH]c(C3CCCC3)nc2n(CCC)c1=O | inactive: -3.52%
CCOC(=O)n1c(=O)oc2ccccc21 | inactive: -9.27%
O=C(CCNNC(=O)c1ccncc1)NCc1ccccc1 | inactive: -2.76%
CCNC(=S)Nc1ccc(OC(F)(F)F)cc1 | inactive: -3.96%
COc1cc(C(=O)Nc2cccc(-c3nnc(-c4ccco4)o3)c2)ccc1OC(C)=O | inactive: 6.89%
O=c1cc(-c2ccc3c(c2)OCCO3)oc2ccc(Cl)cc12 | inactive: -7.19%
NC(=O)c1cnccn1 | inactive: -2.43%
CN1[C@@H]2CC(OC(=O)[C@H](CO)c3ccccc3)C[C@H]1[C@@H]1O[C@@H]12 (stereo not given in full) | inactive: -1.86% and inactive: 1.03%
O=C(NCc1ccc(N2CCCC2=O)cc1)c1ccc(F)cc1 | inactive: 6.92%
CC(=O)O[C@H]1CC[C@H]2[C@@H]3CCc4cc(O)ccc4[C@H]3CC[C@]12C | inactive: 6.73%
CCCCCCCC(=O)OCC(O)CO (stereo not given) | inactive: -1.8%
OC12CCCCC1C(c1ccc3c(c1)OCO3)N(Cc1cccc(F)c1)CC2 (stereo not given) | inactive: -3.42%
CC(=O)NCCCC(=O)NC(CCC(=O)OCc1ccccc1)C(=O)OCc1ccccc1 (stereo not given) | inactive: -3.23%

Structure (SMILES) | inhibition
O=c1n(CCCN2CCN(c3cccc(Cl)c3)CC2)nc2ccccn12 | inactive: -2.6%
CC12CCC(C(=O)NNc3ccccc3)(C(=O)C1=O)C2(C)C (stereo not given) | inactive: 3.25%
Cc1cc(O)c2/c(=N\N)c(-c3csc(C)n3)coc2c1 | inactive: 5.2%
CC1(C)S[C@@H]2[C@H](NC(=O)[C@H](N)c3ccccc3)C(=O)N2[C@H]1C(=O)O | inactive: -3.49% and inactive: -7.07%
CCN(CC)c1ccc(C2=NNC(=O)CC2C)cc1[N+](=O)[O-] (stereo not given) | inactive: -6.85%
C[C@@H]1C[C@H](Nc2ccccc2)c2ccccc2N1C(=O)c1cccnc1 | inactive: -8.75%
O=[N+]([O-])c1cc(/C=N/n2cnnc2)ccc1N1CCCC1 | inactive: 3.29%
COc1ccc2cc([C@H](C)C(=O)O)ccc2c1 | inactive: -2.18%
Cc1ncc([N+](=O)[O-])n1CC(C)O (stereo not given) | inactive: -5.37%
COc1ccc(-c2cc3cc(OC)c(OC)cc3c(C)n2)cc1 | inactive: 2.61%
C/C=C(/C(=C/C)c1ccc(O)cc1)c1ccc(O)cc1 | inactive: 22.1%
O=C(Nc1ccc(Oc2c(F)c(F)c(F)c(F)c2F)cc1)OC1CCN2Cc3ccccc3N=C12 (stereo not given) | active: 71.9%
CCOc1ccc(C(=O)NCC2(c3ccccc3)CCOCC2)cc1 | inactive: -2.44%
COc1ccc(-c2[nH]ncc2CN(CCO)Cc2cccs2)c(F)c1 | inactive: -7.46%
CCOC(=O)C1CCCN(Cc2nc(Cc3cccc(F)c3)no2)C1 (stereo not given) | inactive: -4.38%
N#C/C(=C\c1ccc(O)c(O)c1)C(=O)NCCCc1ccccc1 | inactive: 37.9%
CCNCCC(CCC(C)C)c1ccc2c(c1)OCO2 (stereo not given) | inactive: 5.59%
C/C(NC(=O)c1cccs1)=C1\C(=O)C[C@@H]2[C@H]1C2(C)C | inactive: 4.46%
O=P(c1ccccc1)(c1ccccc1)c1nc(-c2ccc(Cl)cc2)oc1N1CCOCC1 | inactive: 2.59%
Cc1cc(/C=N/O)c(C)n1-c1ccc(Br)cc1 | inactive: 6.12%
O=C(O)c1ccccc1O | inactive: -6.1%
CCOc1ccc2nc(S(N)(=O)=O)sc2c1 | inactive: -10.4%
Nc1ccc(N)c(C(=O)O)c1 | inactive: -12.6%
CN1CCCN(C(c2ccccc2)c2ccc(Cl)cc2)CC1 (stereo not given) | inactive: 6.39%

Exported in CSV form: four of the compounds above.
Structure (SMILES),inhibition
CCOc1ccc(C(=O)NCC2(c3ccccc3)CCOCC2)cc1,inactive: -2.44%
COc1ccc(-c2[nH]ncc2CN(CCO)Cc2cccs2)c(F)c1,inactive: -7.46%
CCOC(=O)C1CCCN(Cc2nc(Cc3cccc(F)c3)no2)C1 (stereo not given),inactive: -4.38%
N#C/C(=C\c1ccc(O)c(O)c1)C(=O)NCCCc1ccccc1,inactive: 37.9%

Part of the list above in order of number of heavy atoms, descending.
Structure (SMILES) | inhibition
CN1CCCN(C(c2ccccc2)c2ccc(Cl)cc2)CC1 (stereo not given) | inactive: 6.39%
Cc1cc(O)c2/c(=N\N)c(-c3csc(C)n3)coc2c1 | inactive: 5.2%
Cc1cc(/C=N/O)c(C)n1-c1ccc(Br)cc1 | inactive: 6.12%
Cc1ncc([N+](=O)[O-])n1CC(C)O (stereo not given) | inactive: -5.37%

(next part)

Structure (SMILES) | inhibition
COC(=O)C1[C@H]2C(=O)N(Cc3cccs3)C[C@]23C=C[C@H]1O3 (stereo not given in full) | inactive: -5.63%
CC(C)OC(=O)C(C)(C)Oc1ccc(C(=O)c2ccc(Cl)cc2)cc1 | inactive: -11.3%
CC(C)NC(=O)C1(c2ccccc2)CCOCC1 | inactive: 0.25%
COc1cc(C2C(C(C)=O)=C(O)C(=O)N2c2ccc(C)cc2)ccc1O (stereo not given) | inactive: -3.68%
CC(C)=CCC/C(C)=C/CC/C(C)=N/O | inactive: -4.49%
O=C(Nc1ccccc1)OCC1CCCN2CCCCC12 (stereo not given) | inactive: -5.9%
CC1(C)NC(C(=O)O)Cc2c1[nH]c1ccccc21 (stereo not given) | inactive: -8.61%
COc1ccc2cc(-c3nc4ccccc4n3C)c(=O)oc2c1 | inactive: -4.01%
COC(=O)CCC(=O)CN | inactive: -0.84%
CCc1cc(=O)oc2cc(C)c(CN3CCCC(C)C3)c(O)c12 (stereo not given) | inactive: 13.8%
CC(=O)c1c(C)[nH]c(C(=O)OCc2ccccc2)c1C | inactive: -7.75%
COc1cccc(/C=C/C(=O)c2c(O)cc(C)oc2=O)c1O | active: 47.8%
COc1ccccc1/C=C/C(=O)c1c2c(c(C)[nH]c1=O)CCCC2 | inactive: 28.8%
CCN1C(=O)C(CC(=O)Nc2ccc(F)cc2)N(Cc2ccc3c(c2)OCO3)C1=S (stereo not given) | inactive: 4.73%
CN(C)CCOc1ccc(Cl)cc1C(C)(C)C | inactive: -6.24%
O=C(O)C1CSC(c2ccco2)N1 (stereo not given) | inactive: 14%
CC(C)(C)N1NC2(CCCCC2)NC1=S | inactive: -12.9%
COc1ccc(CC(=O)Nc2cccc(C(=O)Nc3ccccc3C(=O)O)c2)cc1OC | inactive: -0.1%
CC(=O)C1=C(NC(=O)c2ccc(C(F)(F)F)cc2)C[C@@H]2[C@H]1C2(C)C | inactive: -18.5%
CSCC[C@H](NC(=O)NC1CCCC1)C(=O)O | inactive: 1.38%
COc1ccc2c(C=O)cn(C)c2c1 | inactive: -6.17%
COc1ccc(-c2cc(=O)oc3cc(OC(C)C(=O)O)ccc23)cc1 (stereo not given) | inactive: -3.57%
Cc1c(Cc2ccccc2)c(=O)oc2c(CN(C)C)c(O)c(Cl)cc12 | inactive: 4.84%
CC(C)CC(NC(=O)CNC(=O)C1O[C@@H]2OC(C)(C)O[C@@H]2[C@H]2OC(C)(C)O[C@@H]12)C(=O)O (stereo not given in full) | inactive: -0.05%

Structure (SMILES) | inhibition
COC(=O)[C@H]1[C@H]2C[C@@H]3c4[nH]c5cc(OC)ccc5c4CCN3C[C@H]2C[C@@H](OC(=O)c2ccc(N)cc2)[C@@H]1OC | inactive: 12.1%
OCCN(CCO)c1nc(N2CCCCC2)c2nc(N(CCO)CCO)nc(N3CCCCC3)c2n1 | inactive: 8.79%
Cc1ccc(C2CC(=O)C(C=NCCN3CCN(CC(=O)Nc4cc(C)cc(C)c4)CC3)=C(O)C2)cc1 (stereo not given) | inactive: -0.07%
CC(C)C12CN3CC(C(C)C)(CN(C1)C3c1ccccc1)C2O (stereo not given) | inactive: -10.6%
CC(=O)C1=C(Nc2ccc(C)cc2)CC(C)(O)C(C(C)=O)C1c1ccco1 (stereo not given) | inactive: 5.83%
O=[N+]([O-])c1ccc2cn[nH]c2c1 | inactive: 0.45%
CCn1c(=N)c(C(=O)NC)cc2c(=O)n3cccc(C)c3nc21 | inactive: -12.9%
COc1ccc(C(=O)NC(=O)NC2(C(Cl)(Cl)Cl)OCCO2)cc1 | inactive: -6.58%
Cc1ccc(CSCC(=O)NCCCN2CCOCC2)cc1 | inactive: -1.33%
O=C1N[C@@H](Cc2cnc[nH]2)C(=O)N2CCC[C@@H]12 | inactive: -11.4%
C[C@@H]1C[C@H]2[C@@H]3CCC4=CC(=O)C=C[C@]4(C)[C@@]3(F)[C@@H](O)C[C@]2(C)[C@@]1(O)C(=O)COP(=O)(O)O | inactive: -10.7%
Nc1nc(Cl)nc2c1ncn2[C@@H]1O[C@H](CO)[C@@H](O)[C@H]1O | inactive: -5.45%
CCOC(=O)c1oc2cc(O)cc(C)c2c(=O)c1-c1cscn1 | inactive: 6.32%
COc1ccc(N2C(=O)C3C(C2=O)C(C(=O)c2ccccc2)N2CCCC32)cc1 (stereo not given) | inactive: 15.9%
COc1cccc(C2CCCN2Cc2nc(CCC(C)C)no2)c1 (stereo not given) | inactive: -12.7%
NC(=O)C1CCCNC1 (stereo not given) | inactive: -18.5%
CCCCOn1c(C)c(C(C)=O)c2c3no[n+]([O-])c3ccc21 | inactive: -2.36%
CC(C)COC(=O)C1C(=O)CC(C)(O)C(C(=O)OCC(C)C)C1c1cccnc1 (stereo not given) | inactive: -3.21%
Cc1cc(=O)oc2c(CN(C)Cc3ccccc3)c(O)ccc12 | inactive: -5.21%
O=C(O)c1ccc(-c2ccc(O)c(F)c2)cc1 | inactive: -1.99%
Cn1cc(CN2CCCC(CO)(Cc3cccc(Cl)c3)C2)cn1 (stereo not given) | inactive: -10.7%
O=C1CC(c2ccc(O)cc2)Oc2cc(O)cc(O)c21 (stereo not given) | inactive: 0.6%
Cc1cn([C@H]2C=C[C@@H](CO)O2)c(=O)[nH]c1=O | inactive: -3.68%
